“Also recorded” adds a separate entry of the source. For at least one compound, name, drawing or mass did not settle the structure.
Experiments:
Type in all cases: cell-based
[1] = tested on: p38 MAPK in human proximal tubule cells; assay: LC-induced p38 MAPK activation, ELISA for phosphorylated p38 MAPK; details: varying doses; 50 μM LC, 3 days
Excerpt: Cytokine production may depend upon activation (phosphorylation) of p38 MAP kinase (stress-activated protein kinase 2a) isoforms.

[2] = tested on: NCI-H929 human myeloma cell line; assay: Myeloma cell growth, colorimetric BrdU incorporation
Procedure: A human myeloma cell line (NCI-H929), which produced the lambda (λ) light chains used supra, were grown for 3 days in media containing non-inactivated media, and in the presence or absence of dexamethasone or PACAP38 (FIG. 8). Cell growth was determined by a colorimetric assay that measured the degree of 5-bromo-2-deoxyuridine (BrdU) incorporation by the cells. […] The therapeutic actions of dexamethasone in the treatment of multiple myeloma are attributed to stimulation of apoptosis.

[3] = tested on: ERK1/2 in human proximal tubule cells; assay: LC-induced activation of ERK1/2, phospho-ERK1/2 ELISA; details: dexamethasone 10^−7 M, PACAP38 10^−9 M; 50 μM LC, 3 days
Procedure: The ERK-type MAP kinases (ERK1 and ERK2 or, collectively, ERK1/2) are activated by phosphorylation. Evidence of such activation is visualized by antibody detection techniques, using antibody specific for the phosphorylated forms of ERK1/2. […] ERK1/2 activation was determined by ELISA.

[4] = tested on: TNF-α production by human proximal tubule cells; assay: LC-induced TNF-α production by renal tubule cells, ELISA; details: varying doses; 50 μM LC; 72 hours
Procedure: TNF-α concentrations were determined by ELISA.
Varying doses of dexamethasone, PACAP38, MAPK kinase inhibitor (U0126), or PDTC were added to renal tubule cell cultures along with 50 μM LC to determine the effects on LC-induced TNF-α production, as measured by ELISA (FIG. 4).

[5] = tested on: IL-6 production by human proximal tubule cells; assay: LC-induced IL6 production by renal tubule cells, ELISA; details: varying doses; 50 μM LC
Procedure: The overproduction of IL6 by neoplastic cells is strongly associated with the growth of multiple myeloma. Kawano M, et al. Nature. 332: 83 (1988). Varying doses of PACAP38, dexamethasone, or p38 MAPK kinase inhibitor (SB202190) were added to renal tubule cell cultures along with 50 μM LC to determine the effects on LC-induced IL6 production, as measured by ELISA (FIG. 11).

[6] = tested on: NFκB p65 subunit in human proximal tubule cells; assay: LC-induced activation of NFκB p65 subunit, ELISA; details: dexamethasone 10^−7 M, PACAP38 10^−9 M; 50 μM LC, 3 days
[7] = tested on: NFκB p50 subunit in human proximal tubule cells; assay: LC-induced activation of NFκB p50 subunit, ELISA; details: dexamethasone 10^−7 M, PACAP38 10^−9 M; 50 μM LC, 3 days
Procedure: Human renal tubule cells in vitro were incubated with 50 μM LC for 3 days in the presence or absence of dexamethasone or PACAP38, and assayed by ELISA for activation of NFκB subunits (FIGS. 6 & 7). […] A human Raji cell line (B lymphocyte, Burkitt's lymphoma) was used for positive controls.

SMILES: C[C@@H]1C[C@H]2[C@@H]3CCC4=CC(=O)C=C[C@]4(C)[C@@]3(F)[C@@H](O)C[C@]2(C)[C@@]1(O)C(=O)CO [dexamethasone, reference compound]
- reduction of LC-induced p38 MAPK activation [1]: suppressed activation of p38 MAPK; also recorded: reduced significantly, and in a dose-dependent manner; also recorded: suppressed p38 MAPK activation in a dose-dependent manner
- suppression of myeloma cell growth ([2]; 3 days, media with non-inactivated serum): suppressed growth of myeloma cells in cultures with approximately the same efficacy; also recorded: suppressed cell growth significantly
- tumor cell growth at 10^−7M ([2]; dexamethasone 10^−7M): the cells started to grow again
- tumor cell growth at 10^−9 M ([2]; dexamethasone 10^−9 M): significant suppression of tumor cell growth
- suppression of LC-induced ERK1/2 activation [3]: Neither dexamethasone nor PACAP38 suppressed ERK1/2 MAPK activation; also recorded: the difference was not statistically significant; also recorded: neither dexamethasone nor PACAP38 suppressed light chain-induced ERK1/2 activation significantly
- suppression of LC-induced TNF-α production [4]: suppressed by both dexamethasone and PACAP38 in a dose-dependent manner
- suppression of LC-stimulated IL6 production [5]: significant suppression; also recorded: suppressed by both dexamethasone and PACAP38 in a dose-dependent manner
- suppression of NFκB p65 subunit activation [6]: Neither dexamethasone nor PACAP38 suppressed; also recorded: suppressed NFκB p65 subunit activity slightly
- suppression of LC-induced NFκB p50 subunit activation [7]: significantly suppressed NFκB p50 activation; also recorded: suppressed by both dexamethasone and PACAP38

From patent US9006181B2 (The Administrators of the Tulane Educational Fund, priority 2004, dated 2015)
